From the supplement of paper PMC5836539
± gives the standard deviation of the averaged measurements. Most values lie within the scatter of the assay; repeated measurements hardly agree.

By UniProt entry, the sequences of proteins in these tests, tags left out. Where a name states a change or a piece, a line headed by the entry shows the natural chain unless it says otherwise.
UniProt Q7Z5K2: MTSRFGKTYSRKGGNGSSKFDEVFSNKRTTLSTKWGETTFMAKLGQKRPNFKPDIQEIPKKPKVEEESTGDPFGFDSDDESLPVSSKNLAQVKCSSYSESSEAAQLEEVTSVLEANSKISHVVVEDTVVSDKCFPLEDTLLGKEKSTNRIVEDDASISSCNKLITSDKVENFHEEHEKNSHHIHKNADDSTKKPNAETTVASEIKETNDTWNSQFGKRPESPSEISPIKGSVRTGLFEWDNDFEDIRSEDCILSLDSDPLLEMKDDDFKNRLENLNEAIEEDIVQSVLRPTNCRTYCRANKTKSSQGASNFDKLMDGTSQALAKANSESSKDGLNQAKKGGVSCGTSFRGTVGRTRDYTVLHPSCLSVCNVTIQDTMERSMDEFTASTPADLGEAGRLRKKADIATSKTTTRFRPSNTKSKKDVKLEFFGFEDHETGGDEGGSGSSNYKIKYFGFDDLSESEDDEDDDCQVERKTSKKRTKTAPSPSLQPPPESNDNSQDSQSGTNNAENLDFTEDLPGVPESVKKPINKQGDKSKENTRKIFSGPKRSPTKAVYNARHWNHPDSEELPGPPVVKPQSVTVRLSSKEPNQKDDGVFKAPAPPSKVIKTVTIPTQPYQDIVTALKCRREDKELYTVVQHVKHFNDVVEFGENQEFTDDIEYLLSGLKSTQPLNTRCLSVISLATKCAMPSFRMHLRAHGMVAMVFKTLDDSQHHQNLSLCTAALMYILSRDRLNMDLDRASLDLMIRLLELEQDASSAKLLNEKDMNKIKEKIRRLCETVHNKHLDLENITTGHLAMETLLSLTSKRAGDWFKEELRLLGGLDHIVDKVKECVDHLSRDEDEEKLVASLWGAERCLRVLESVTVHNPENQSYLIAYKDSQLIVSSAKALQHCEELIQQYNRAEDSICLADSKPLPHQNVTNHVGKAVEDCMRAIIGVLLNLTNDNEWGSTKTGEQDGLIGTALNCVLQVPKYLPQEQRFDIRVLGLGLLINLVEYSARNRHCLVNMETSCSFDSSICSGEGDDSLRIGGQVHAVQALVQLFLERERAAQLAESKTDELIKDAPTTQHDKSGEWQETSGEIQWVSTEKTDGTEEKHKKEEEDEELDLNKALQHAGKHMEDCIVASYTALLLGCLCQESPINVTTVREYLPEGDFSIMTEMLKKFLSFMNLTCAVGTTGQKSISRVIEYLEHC
UniProt Q9BU76: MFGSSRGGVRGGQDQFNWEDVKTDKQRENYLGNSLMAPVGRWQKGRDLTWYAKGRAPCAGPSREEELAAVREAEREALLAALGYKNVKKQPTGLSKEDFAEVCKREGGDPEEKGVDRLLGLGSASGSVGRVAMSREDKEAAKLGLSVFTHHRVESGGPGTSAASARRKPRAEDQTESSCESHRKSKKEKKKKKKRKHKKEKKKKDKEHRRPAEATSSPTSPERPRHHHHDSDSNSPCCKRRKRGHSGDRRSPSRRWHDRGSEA
UniProt Q9H1B7, whole entry, looked up: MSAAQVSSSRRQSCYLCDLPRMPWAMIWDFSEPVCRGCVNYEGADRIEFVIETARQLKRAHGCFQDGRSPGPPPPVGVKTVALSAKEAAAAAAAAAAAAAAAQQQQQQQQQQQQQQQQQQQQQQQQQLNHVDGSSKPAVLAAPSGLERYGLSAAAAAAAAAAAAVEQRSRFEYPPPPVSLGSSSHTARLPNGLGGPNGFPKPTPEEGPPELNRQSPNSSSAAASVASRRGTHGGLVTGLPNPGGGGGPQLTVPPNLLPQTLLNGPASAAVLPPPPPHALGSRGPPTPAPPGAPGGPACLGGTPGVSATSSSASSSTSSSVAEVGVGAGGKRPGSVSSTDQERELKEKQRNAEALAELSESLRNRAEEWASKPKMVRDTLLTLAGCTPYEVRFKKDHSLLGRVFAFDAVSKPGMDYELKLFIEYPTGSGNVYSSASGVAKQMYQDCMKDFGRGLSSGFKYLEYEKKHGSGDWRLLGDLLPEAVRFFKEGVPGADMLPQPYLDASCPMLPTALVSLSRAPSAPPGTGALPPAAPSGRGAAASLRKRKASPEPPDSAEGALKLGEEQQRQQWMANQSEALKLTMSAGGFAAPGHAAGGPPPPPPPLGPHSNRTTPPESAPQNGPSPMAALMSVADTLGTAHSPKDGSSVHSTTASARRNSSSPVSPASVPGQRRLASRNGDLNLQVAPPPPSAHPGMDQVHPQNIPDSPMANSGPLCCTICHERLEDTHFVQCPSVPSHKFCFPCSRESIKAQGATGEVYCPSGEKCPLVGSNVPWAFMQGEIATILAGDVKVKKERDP
UniProt Q9H3N1: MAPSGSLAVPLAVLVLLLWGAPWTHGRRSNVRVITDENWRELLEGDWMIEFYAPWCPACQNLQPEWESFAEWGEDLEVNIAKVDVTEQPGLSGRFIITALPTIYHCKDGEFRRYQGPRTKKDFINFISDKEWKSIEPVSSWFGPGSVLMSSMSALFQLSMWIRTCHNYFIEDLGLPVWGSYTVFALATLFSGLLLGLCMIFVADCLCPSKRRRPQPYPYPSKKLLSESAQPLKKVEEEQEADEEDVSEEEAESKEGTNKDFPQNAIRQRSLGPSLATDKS
UniProt Q9NYF8, whole entry, looked up: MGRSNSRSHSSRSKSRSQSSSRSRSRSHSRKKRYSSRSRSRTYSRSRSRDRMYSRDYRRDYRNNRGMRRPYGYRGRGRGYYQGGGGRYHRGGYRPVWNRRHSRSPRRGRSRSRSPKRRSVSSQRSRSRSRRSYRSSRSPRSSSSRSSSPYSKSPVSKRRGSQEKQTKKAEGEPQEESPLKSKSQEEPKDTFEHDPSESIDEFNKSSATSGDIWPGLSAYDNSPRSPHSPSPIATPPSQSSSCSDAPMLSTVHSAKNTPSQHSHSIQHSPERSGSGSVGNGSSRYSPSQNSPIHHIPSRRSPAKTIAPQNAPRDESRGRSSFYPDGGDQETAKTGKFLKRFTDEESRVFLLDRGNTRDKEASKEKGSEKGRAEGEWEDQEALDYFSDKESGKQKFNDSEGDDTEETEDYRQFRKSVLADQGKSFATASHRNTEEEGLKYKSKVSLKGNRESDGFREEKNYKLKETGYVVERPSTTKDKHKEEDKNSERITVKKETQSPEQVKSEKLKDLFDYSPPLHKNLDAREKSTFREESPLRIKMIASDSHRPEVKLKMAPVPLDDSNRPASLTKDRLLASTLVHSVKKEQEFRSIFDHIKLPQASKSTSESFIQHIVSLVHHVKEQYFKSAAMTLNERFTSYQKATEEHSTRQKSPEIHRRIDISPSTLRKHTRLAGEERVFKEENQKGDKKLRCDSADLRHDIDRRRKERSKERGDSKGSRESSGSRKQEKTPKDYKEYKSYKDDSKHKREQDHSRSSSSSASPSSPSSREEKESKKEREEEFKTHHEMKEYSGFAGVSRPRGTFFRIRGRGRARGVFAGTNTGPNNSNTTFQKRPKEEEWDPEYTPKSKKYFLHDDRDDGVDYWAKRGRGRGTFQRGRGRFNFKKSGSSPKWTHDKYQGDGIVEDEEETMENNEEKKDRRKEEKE
UniProt Q9P260: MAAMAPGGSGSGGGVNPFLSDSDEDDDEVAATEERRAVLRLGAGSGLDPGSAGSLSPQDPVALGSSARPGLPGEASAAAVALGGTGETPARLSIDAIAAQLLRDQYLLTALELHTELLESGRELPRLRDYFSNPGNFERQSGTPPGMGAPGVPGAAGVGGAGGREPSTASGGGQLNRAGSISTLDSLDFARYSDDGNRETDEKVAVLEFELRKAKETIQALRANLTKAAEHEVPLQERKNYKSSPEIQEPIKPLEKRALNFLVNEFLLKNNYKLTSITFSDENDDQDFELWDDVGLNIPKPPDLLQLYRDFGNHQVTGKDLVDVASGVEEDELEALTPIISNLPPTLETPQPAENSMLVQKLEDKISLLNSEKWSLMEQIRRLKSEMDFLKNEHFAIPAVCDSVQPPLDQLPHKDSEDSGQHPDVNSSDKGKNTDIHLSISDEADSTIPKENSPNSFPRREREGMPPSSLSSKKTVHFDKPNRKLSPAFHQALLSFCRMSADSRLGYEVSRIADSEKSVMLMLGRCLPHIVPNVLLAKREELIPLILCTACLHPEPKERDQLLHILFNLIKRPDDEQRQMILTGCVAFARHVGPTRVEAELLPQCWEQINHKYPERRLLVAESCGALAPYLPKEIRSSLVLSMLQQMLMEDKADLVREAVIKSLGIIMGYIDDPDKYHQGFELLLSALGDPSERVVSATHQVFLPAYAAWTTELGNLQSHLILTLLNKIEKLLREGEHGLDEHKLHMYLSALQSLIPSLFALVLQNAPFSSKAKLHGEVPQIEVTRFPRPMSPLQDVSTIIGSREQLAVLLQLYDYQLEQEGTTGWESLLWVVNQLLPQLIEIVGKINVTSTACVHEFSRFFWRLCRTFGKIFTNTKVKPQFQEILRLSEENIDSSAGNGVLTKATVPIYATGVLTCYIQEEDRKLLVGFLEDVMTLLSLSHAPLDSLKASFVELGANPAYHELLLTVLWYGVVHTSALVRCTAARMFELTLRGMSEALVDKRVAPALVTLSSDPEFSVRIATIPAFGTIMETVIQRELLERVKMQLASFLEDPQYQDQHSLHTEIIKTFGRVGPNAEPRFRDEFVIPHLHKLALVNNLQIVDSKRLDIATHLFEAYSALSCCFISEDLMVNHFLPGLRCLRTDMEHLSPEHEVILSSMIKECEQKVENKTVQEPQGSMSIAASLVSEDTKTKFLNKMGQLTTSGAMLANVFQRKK
UniProt Q9Y4E1, whole entry, looked up: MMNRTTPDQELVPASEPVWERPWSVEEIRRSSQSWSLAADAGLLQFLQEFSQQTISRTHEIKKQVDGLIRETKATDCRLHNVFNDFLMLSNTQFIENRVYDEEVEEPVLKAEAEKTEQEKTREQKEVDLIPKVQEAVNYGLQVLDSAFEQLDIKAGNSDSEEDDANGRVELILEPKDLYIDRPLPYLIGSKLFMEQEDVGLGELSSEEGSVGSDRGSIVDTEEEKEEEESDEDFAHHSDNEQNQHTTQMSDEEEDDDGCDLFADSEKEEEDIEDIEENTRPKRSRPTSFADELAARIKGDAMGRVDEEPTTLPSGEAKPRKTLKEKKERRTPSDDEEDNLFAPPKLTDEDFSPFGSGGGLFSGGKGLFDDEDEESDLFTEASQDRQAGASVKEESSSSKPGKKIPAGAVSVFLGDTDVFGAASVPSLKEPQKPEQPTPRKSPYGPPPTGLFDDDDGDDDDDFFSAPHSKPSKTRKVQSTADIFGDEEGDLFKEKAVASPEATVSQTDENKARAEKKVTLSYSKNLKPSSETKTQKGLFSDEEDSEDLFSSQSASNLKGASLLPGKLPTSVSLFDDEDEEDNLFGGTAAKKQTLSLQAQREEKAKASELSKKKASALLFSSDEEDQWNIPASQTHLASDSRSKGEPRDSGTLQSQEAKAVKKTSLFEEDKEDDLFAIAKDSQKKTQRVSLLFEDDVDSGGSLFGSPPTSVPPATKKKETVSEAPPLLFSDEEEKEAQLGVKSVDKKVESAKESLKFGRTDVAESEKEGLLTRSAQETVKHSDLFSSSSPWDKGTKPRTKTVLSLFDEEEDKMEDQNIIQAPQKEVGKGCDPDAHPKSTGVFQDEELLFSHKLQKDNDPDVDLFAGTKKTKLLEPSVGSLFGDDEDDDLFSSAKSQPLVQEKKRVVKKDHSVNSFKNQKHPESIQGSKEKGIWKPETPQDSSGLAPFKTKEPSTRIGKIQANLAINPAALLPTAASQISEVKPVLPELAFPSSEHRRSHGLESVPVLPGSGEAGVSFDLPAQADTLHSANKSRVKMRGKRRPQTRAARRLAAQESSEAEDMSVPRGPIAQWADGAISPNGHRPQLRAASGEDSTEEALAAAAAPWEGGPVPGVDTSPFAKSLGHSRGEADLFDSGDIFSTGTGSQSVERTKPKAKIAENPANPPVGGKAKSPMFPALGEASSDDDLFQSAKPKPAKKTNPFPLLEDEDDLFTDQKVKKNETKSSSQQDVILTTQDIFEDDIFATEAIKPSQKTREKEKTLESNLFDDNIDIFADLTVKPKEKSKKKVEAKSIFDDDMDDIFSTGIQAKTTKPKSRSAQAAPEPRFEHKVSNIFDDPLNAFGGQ
UniProt Q71U36, whole entry, looked up: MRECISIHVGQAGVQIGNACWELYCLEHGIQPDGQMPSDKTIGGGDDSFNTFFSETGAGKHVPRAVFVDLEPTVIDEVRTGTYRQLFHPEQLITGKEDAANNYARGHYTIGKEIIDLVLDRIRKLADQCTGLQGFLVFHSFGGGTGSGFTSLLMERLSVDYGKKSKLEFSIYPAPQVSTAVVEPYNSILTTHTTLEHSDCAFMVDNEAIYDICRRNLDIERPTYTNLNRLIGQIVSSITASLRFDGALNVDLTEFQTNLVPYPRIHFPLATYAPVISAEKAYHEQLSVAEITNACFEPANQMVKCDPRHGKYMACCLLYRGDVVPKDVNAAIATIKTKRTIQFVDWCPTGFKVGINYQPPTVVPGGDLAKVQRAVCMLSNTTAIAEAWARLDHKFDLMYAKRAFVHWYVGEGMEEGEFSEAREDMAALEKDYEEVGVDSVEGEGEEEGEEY

The targets below were run with CC[C@@H](C)Nc1cc(C(=O)N[C@H]2C[C@H]3CC[C@@H](C2)N3c2ccc(C(=O)C3CC3)cn2)c(C)cc1C(N)=O [XL888] (assay: phosphopeptide melting temperature shift (XL888 minus DMSO); higher = stabilised by drug treatment). Settings: 100 µM; treatment time 2 h; layout: intact cells; SK-Mel 24.
Procedure: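 Phospho-TPP in intact SK-Mel 24 cells treated with 100 uM XL888 or DMSO for 2 h, heated at 10 temperatures (37-67 C) for 3 min, soluble fraction TMT10plex-labelled and TiO2 phospho-enriched. Melting curves were fitted per phosphopeptide; the value is the melting point difference (drug minus vehicle) in each of two biological replicates.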

Target	phosphopeptide melting temperature shift
UniProt Q7LBC6_phosphosite_798 (phosphosite position: 798)	-0.95 °C
UniProt Q7Z4V5_phosphosite_652 (phosphosite position: 652)	7.23 °C
UniProt Q7Z4V5_phosphosite_664 (phosphosite position: 664)	1.09 °C
UniProt Q7Z5K2_phosphosite_221 (phosphosite position: 221)	2.47 ± 2.1 °C
UniProt Q7Z5L9-2_phosphosite_344 (phosphosite position: 344)	-0.893 °C
UniProt Q8IY67-2_phosphosite_617 (phosphosite position: 617)	-2.82 °C
UniProt Q8IZ21-3_phosphosite_102 (phosphosite position: 102)	2.21 °C
UniProt Q8WVC0-2_phosphosite_140 (phosphosite position: 140)	1.74 °C
UniProt Q8WVC0-2_phosphosite_570 (phosphosite position: 570)	0.235 °C
UniProt Q8WVV9-3_phosphosite_30 (phosphosite position: 30)	1.69 °C
UniProt Q8WYL5-4_phosphosite_666 (phosphosite position: 666)	0.28 °C
UniProt Q9BST9-3_phosphosite_56 (phosphosite position: 56)	-0.0281 °C
UniProt Q9BU76_phosphosite_220 (phosphosite position: 220)	2.56 °C
UniProt Q9BUH6_phosphosite_152 (phosphosite position: 152)	0.669 °C
UniProt Q9BUQ8-2_phosphosite_14 (phosphosite position: 14)	-3.12 °C
UniProt Q9BV36_phosphosite_266 (phosphosite position: 266)	-0.702 °C
UniProt Q9BV36_phosphosite_314 (phosphosite position: 314)	1.99 °C
UniProt Q9BVC5-2_phosphosite_185 (phosphosite position: 185)	-2.33 °C
UniProt Q9BXP5-5_phosphosite_507 (phosphosite position: 507)	-0.109 °C

Target	phosphopeptide melting temperature shift
UniProt Q9BY44-3_phosphosite_481 (phosphosite position: 481)	0.339 ± 0.15 °C
UniProt Q9BZ23-3_phosphosite_45 (phosphosite position: 45)	-2.68 °C
UniProt Q9BZQ8_phosphosite_646 (phosphosite position: 646)	-1.78 °C
UniProt Q9H1B7_phosphosite_334 (phosphosite position: 334)	0.214 °C
UniProt Q9H1B7_phosphosite_547 (phosphosite position: 547)	1.82 °C
UniProt Q9H3N1_phosphosite_247 (phosphosite position: 247)	2.17 °C
UniProt Q9H4L5-5_phosphosite_304 (phosphosite position: 304)	-0.205 °C
UniProt Q9HAU0-5_phosphosite_799 (phosphosite position: 799)	1.59 ± 0.27 °C
UniProt Q9NQG7-2_phosphosite_373 (phosphosite position: 373)	0.368 °C
UniProt Q9NWV8-3_phosphosite_27 (phosphosite position: 27)	0.415 °C
UniProt Q9NYF8-3_phosphosite_529 (phosphosite position: 529)	-1.76 ± 2.2 °C
UniProt Q9NYF8-3_phosphosite_646 (phosphosite position: 646)	1.4 °C
UniProt Q9NYF8-3_phosphosite_656 (phosphosite position: 656)	1.52 ± 1.6 °C
UniProt Q9NYF8-3_phosphosite_658 (phosphosite position: 658)	1.34 °C
UniProt Q9P1Y6-2_phosphosite_915 (phosphosite position: 915)	2.21 °C
UniProt Q9P1Y6-2_phosphosite_1202 (phosphosite position: 1202)	1.84 ± 2.8 °C
UniProt Q9P260_phosphosite_180 (phosphosite position: 180)	-0.485 °C
UniProt Q9UBF8-2_phosphosite_413 (phosphosite position: 413)	1.47 °C
UniProt Q9UJF2-2_phosphosite_159 (phosphosite position: 159)	-0.127 °C

Target	phosphopeptide melting temperature shift
UniProt Q9UKA8-6_phosphosite_27 (phosphosite position: 27)	2.08 °C
UniProt Q9UKE5-6_phosphosite_651 (phosphosite position: 651)	0.781 ± 0.13 °C
UniProt Q9UKM9-2_phosphosite_119 (phosphosite position: 119)	2.63 °C
UniProt Q9ULU8-2_phosphosite_91 (phosphosite position: 91)	1.55 ± 0.34 °C
UniProt Q9UPN3-4_phosphosite_280 (phosphosite position: 280)	-1.71 °C
UniProt Q9UPN9-2_phosphosite_1102 (phosphosite position: 1102)	-0.766 °C
UniProt Q9Y2U5_phosphosite_153 (phosphosite position: 153)	-2.23 °C
UniProt Q9Y3R5-2_phosphosite_610 (phosphosite position: 610)	-0.33 ± 0.045 °C
UniProt Q9Y4E1-6_phosphosite_539 (phosphosite position: 539)	2.14 °C
UniProt Q9Y4F5-3_phosphosite_290 (phosphosite position: 290)	2.3 °C
UniProt Q9Y4P8-4_phosphosite_395 (phosphosite position: 395)	-1.09 °C
UniProt Q9Y6M1-1_phosphosite_162 (phosphosite position: 162)	-0.24 °C
UniProt Q9Y608-4_phosphosite_96 (phosphosite position: 96)	0.387 °C
UniProt Q71U36-2_phosphosite_13 (phosphosite position: 13)	-0.724 °C
UniProt Q86V48-2_phosphosite_394 (phosphosite position: 394)	0.326 ± 0.2 °C
UniProt Q86V48-2_phosphosite_659 (phosphosite position: 659)	-0.755 ± 0.17 °C
UniProt Q86W92-2_phosphosite_534 (phosphosite position: 534)	0.564 ± 0.54 °C
UniProt Q86W92-2_phosphosite_596 (phosphosite position: 596)	-0.142 °C
UniProt Q86W92-2_phosphosite_597 (phosphosite position: 597)	0.393 °C

In a second layout: results already given.
Target,phosphopeptide melting temperature shift
UniProt Q9Y3R5-2_phosphosite_610 (phosphosite position: 610),-0.33 ± 0.045 °C
UniProt Q9Y4E1-6_phosphosite_539 (phosphosite position: 539),2.14 °C
UniProt Q9Y4F5-3_phosphosite_290 (phosphosite position: 290),2.3 °C
UniProt Q9Y4P8-4_phosphosite_395 (phosphosite position: 395),-1.09 °C
UniProt Q9Y6M1-1_phosphosite_162 (phosphosite position: 162),-0.24 °C
UniProt Q9Y608-4_phosphosite_96 (phosphosite position: 96),0.387 °C
UniProt Q71U36-2_phosphosite_13 (phosphosite position: 13),-0.724 °C
UniProt Q86V48-2_phosphosite_394 (phosphosite position: 394),0.326 ± 0.2 °C
UniProt Q86V48-2_phosphosite_659 (phosphosite position: 659),-0.755 ± 0.17 °C
UniProt Q86W92-2_phosphosite_534 (phosphosite position: 534),0.564 ± 0.54 °C
UniProt Q86W92-2_phosphosite_596 (phosphosite position: 596),-0.142 °C
UniProt Q86W92-2_phosphosite_597 (phosphosite position: 597),0.393 °C
